Results as given in paper PMC7196306.
These are yes or no findings as the source states them, for the method shown. In cells and extracts the contact can be indirect. Some binding calls cover weakened binding; strength is not graded here.

Protein sequences, listed by entry. Tags and fused reporters are not part of them.
UniProt F7F8L9: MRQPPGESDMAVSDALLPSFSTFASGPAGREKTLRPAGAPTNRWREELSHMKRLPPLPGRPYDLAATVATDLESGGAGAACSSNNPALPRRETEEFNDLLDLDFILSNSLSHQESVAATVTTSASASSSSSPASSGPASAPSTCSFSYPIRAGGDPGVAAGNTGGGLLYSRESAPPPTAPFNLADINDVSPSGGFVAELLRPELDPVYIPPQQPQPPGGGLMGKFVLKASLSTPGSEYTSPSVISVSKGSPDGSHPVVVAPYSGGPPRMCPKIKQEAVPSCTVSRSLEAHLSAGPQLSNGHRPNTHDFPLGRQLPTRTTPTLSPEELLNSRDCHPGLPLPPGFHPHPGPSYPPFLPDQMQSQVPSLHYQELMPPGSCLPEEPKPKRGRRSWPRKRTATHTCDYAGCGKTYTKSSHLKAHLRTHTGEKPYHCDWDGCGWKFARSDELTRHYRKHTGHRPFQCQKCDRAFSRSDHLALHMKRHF
UniProt O70437: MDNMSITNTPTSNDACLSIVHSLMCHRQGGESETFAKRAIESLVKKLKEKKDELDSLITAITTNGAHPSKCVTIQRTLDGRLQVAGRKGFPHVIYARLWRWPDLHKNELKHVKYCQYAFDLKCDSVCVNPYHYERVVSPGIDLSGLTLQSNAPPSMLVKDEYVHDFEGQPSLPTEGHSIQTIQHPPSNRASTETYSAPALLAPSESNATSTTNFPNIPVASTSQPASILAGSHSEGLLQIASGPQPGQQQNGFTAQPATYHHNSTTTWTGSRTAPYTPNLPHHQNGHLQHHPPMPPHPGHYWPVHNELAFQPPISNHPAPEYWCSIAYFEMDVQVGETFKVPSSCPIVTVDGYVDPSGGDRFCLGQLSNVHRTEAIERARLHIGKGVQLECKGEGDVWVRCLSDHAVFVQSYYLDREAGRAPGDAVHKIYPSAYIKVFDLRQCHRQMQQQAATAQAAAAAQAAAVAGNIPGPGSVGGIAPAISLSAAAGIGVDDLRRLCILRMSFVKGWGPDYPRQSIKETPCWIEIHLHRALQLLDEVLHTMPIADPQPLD

Biological target: Krüppel-like factor 4 (rat (endogenous in PASMCs)) (UniProt F7F8L9)
Assay: co-IP; cross co-immunoprecipitation from lysates of PASMCs transfected with Ad-Myadm or Myadm-siRNA: anti-KLF4 resin, blot for KLF4 and SMAD4; anti-SMAD4 resin, blot for SMAD4 and KLF4

binding: binds
Substance: SMAD4 (from UniProt O70437 1-552)
